Laboratory results: PubChem BioAssay AID602196 (INSERM, 2012)

Assay: 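Genes whose knock-down alters cisplatin killing of lung cancer cells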
Cell system: human A549 lung cancer cells
Reagent: siRNA pair against human genes
Time to read-out: 48 h transfection before cisplatin; time from cisplatin to read-out not stated
Conditions: cisplatin at a dose killing half of control-siRNA cells; exact dose and duration not given
Read-out: 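Shift in cisplatin death relative to control siRNA, from -50 (all cells die) to +50 (no cells die); siRNAs harmful on their own scored 0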
Reading the numbers: two-siRNA summed score (-2 to +2): higher = both siRNAs protect from cisplatin killing; -2 means both sensitise; mean protection from cisplatin (shift in death) and protection from cisplatin (shift in death), siRNA C and protection from cisplatin (shift in death), siRNA D: higher = protection from cisplatin killing
Hit rule: 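Each siRNA scores 0 if harmful alone by LDH or WST-1, otherwise +1 if it reduces and -1 if it increases cisplatin killing; a gene is active when both siRNAs agree (sum +2 or -2)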
Meaning of the calls: active = both siRNAs shift cisplatin killing the same way; inactive = no consistent shift, or siRNA harmful alone
This is an unselected part of about 23,000 reagents. Of all reagents, 455 (2%) got an active call. 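Active includes both protection and sensitisation; some change values fall well beyond the stated -50 to +50 range.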 Entries without a mark were called inactive. Reagents against one gene are numbered here. Reagent sequences are not shown. The record does not give: the amount of reagent.

gene knocked down	reagent no.	two-siRNA summed score (-2 to +2)	mean protection from cisplatin (shift in death) (%)	protection from cisplatin (shift in death), siRNA C (%)	protection from cisplatin (shift in death), siRNA D (%)
CPA1	1	-1	-5	5.2	-15.2
LOC343574	1	0	9.8	17.7	1.9
ACOT6	1	0	16.8	23.6	10
VPS50	1	0	10.5	14.7	6.4
VPS50	2	0	18.9	19.3	18.6
RIN2	1	0	8	17.6	-1.6
PLEKHM2	1	0	8.6	-9.2	26.3
MIS18BP1	1	0	3.4	7	-0.2
LOC389112	1	0	26.6	17.2	36
ALDH1A3	1	-1	-14.8	-9.2	-20.3
ALDH1A3	2	0	-0.2	-1.6	1.1
ABCA4	1	-1	6.5	-7.7	20.7
LOC441414	1	0	7.3	9	5.6
RAB3D	1	0	2.9	30.1	-24.3
DAP3	1	-1	-16.1	-21.6	-10.7
CUBN	1	-1	-12.5	-6.4	-18.6
LOC400664	1	0	-0.3	-5.8	5.3
LRRTM3	1	0	-3.6	-3.6	-3.6
ZNF573	1	0	6.5	9.6	3.4
CCDC87	1	-1	-7.2	-16	1.5
SET	1	0	13.3	16.5	10.1
H3C12	1	0	-5.1	-7	-3.2
PACC1	1	1	12.1	4.1	20.2

Not a retest: entries from further up.
gene knocked down	reagent no.	two-siRNA summed score (-2 to +2)	mean protection from cisplatin (shift in death) (%)	protection from cisplatin (shift in death), siRNA C (%)	protection from cisplatin (shift in death), siRNA D (%)
LOC400664	1	0	-0.3	-5.8	5.3
LRRTM3	1	0	-3.6	-3.6	-3.6
